PubChem BioAssay AID1159599 – NIAID, 2016

Assay: 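Effect of knocking down TLR signalling components on Tnf reporter after LPS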
Cell system: mouse RAW264.7 G9 macrophage reporter clone cells
Reagent: single siRNA against mouse genes
Timing: 48 to 72 h after siRNA transfection, LPS for the last 16 h
Treatment: LPS (Salmonella minnesota R595), 16 h before fixation; dose not stated
Read-out: 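High-content imaging of red fluorescence driven by the Tnf promoter after LPS, background subtracted, scored per siRNA as a plate-wise median/MAD robust z-score, replicate mean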
Scale: Tnf reporter z-score: higher = stronger Tnf promoter reporter signal after LPS
Active means: 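Active when the replicate-mean Tnf reporter z-score is about -1.5 or lower, or about 1.5 or higher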
Meaning of the calls: active = strong change either way; inactive = little change
In all, the deposit lists 756 reagents; this is a part drawn at random. 130 of all reagents (17%) were called active. 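Calls are two-sided: actives include siRNAs that raised the Tnf reporter as well as ones that lowered it.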 The numbers tell different reagents against one gene apart. The record does not give: the amount of reagent.

Tnf reporter z-score, replicate mean | activity call | gene | reagent no.
0.62 | inactive | Map2k2 | 1
-1.16 | inactive | Map2k2 | 2
-0.661 | inactive | Map2k2 | 3
-0.402 | inactive | Map2k2 | 4
-0.0411 | inactive | Map2k2 | 5
-1.85 | active | Map2k2 | 6
-0.655 | inactive | Elf4 | 1
-0.726 | inactive | Elf4 | 2
-0.276 | inactive | Elf4 | 3
-0.526 | inactive | Elf4 | 4
-1.55 | active | Elf4 | 5
-0.17 | inactive | Elf4 | 6
-0.923 | inactive | Egr1 | 1
-2.19 | active | Egr1 | 2
-2.25 | active | Egr1 | 3
-0.147 | inactive | Egr1 | 4
-1.5 | inactive | Egr1 | 5
-0.367 | inactive | Egr1 | 6
2.22 | active | Irf9 | 1
0.413 | inactive | Irf9 | 2
0.0436 | inactive | Irf9 | 3
0.753 | inactive | Irf9 | 4
1.18 | inactive | Irf9 | 5
-0.615 | inactive | Irf9 | 6
-0.447 | inactive | Atf7 | 1
-1.56 | active | Atf7 | 2
-1.26 | inactive | Atf7 | 3
0.0553 | inactive | Atf7 | 4
-1.76 | active | Atf7 | 5
-1.06 | inactive | Atf7 | 6
0.00367 | inactive | Nfkbib | 1
-0.753 | inactive | Nfkbib | 2
0.0697 | inactive | Nfkbib | 3
-0.85 | inactive | Nfkbib | 4
-1.31 | inactive | Nfkbib | 5
-0.731 | inactive | Nfkbib | 6
-0.521 | inactive | Pik3r1 | 1
-0.473 | inactive | Pik3r1 | 2
-0.13 | inactive | Pik3r1 | 3
-0.00905 | inactive | Pik3r1 | 4
-0.449 | inactive | Pik3r1 | 5
-0.39 | inactive | Pik3r1 | 6
-0.532 | inactive | Tank | 1
1.41 | inactive | Tank | 2
0.685 | inactive | Tank | 3
1.29 | inactive | Tank | 4
0.00624 | inactive | Tank | 5
0.306 | inactive | Tank | 6
-0.284 | inactive | Relb | 1
-0.0301 | inactive | Relb | 2
-1.27 | inactive | Relb | 3
0.688 | inactive | Relb | 4
-2.23 | active | Relb | 5
-0.939 | inactive | Relb | 6
-2.14 | active | Il12b | 1
-0.0468 | inactive | Il12b | 2
-0.213 | inactive | Il12b | 3
0.876 | inactive | Il12b | 4
-1.11 | inactive | Il12b | 5
0.184 | inactive | Il12b | 6
-1.68 | active | Ep300 | 1
-0.482 | inactive | Ep300 | 2
0.376 | inactive | Ep300 | 3
-0.318 | inactive | Ep300 | 4
-0.711 | inactive | Ep300 | 5
-0.233 | inactive | Ep300 | 6
0.13 | inactive | Map2k1 | 1
-0.902 | inactive | Map2k1 | 2
-0.977 | inactive | Map2k1 | 3
-0.0743 | inactive | Map2k1 | 4
-1.72 | active | Map2k1 | 5
-0.658 | inactive | Map2k1 | 6
0.314 | inactive | Tlr3 | 1
-2.19 | active | Tlr3 | 2
-0.186 | inactive | Tlr3 | 3
0.688 | inactive | Tlr3 | 4
0.596 | inactive | Tlr3 | 5
1.19 | inactive | Tlr3 | 6
-0.137 | inactive | Ptk2b | 1
0.802 | inactive | Ptk2b | 2
-0.583 | inactive | Ptk2b | 3
-1.86 | active | Ptk2b | 4
-0.534 | inactive | Ptk2b | 5
-0.446 | inactive | Ptk2b | 6
-0.497 | inactive | Ccl3 | 1
-0.371 | inactive | Ccl3 | 2
-1.67 | active | Ccl3 | 3
-0.858 | inactive | Ccl3 | 4
-0.202 | inactive | Ccl3 | 5
-0.849 | inactive | Ccl3 | 6
-0.448 | inactive | Akt2 | 1
-2.33 | active | Akt2 | 2
-0.454 | inactive | Akt2 | 3
-2.06 | active | Akt2 | 4
-1.08 | inactive | Akt2 | 5
-0.615 | inactive | Akt2 | 6
0.276 | inactive | Pik3r5 | 1
-0.0672 | inactive | Pik3r5 | 2
-1.83 | active | Pik3r5 | 3
-0.962 | inactive | Pik3r5 | 4
-1.52 | active | Pik3r5 | 5
-0.511 | inactive | Pik3r5 | 6
0.681 | inactive | Ptpn6 | 1
0.157 | inactive | Ptpn6 | 2
-0.238 | inactive | Ptpn6 | 3
-0.694 | inactive | Ptpn6 | 4
-1.87 | active | Ptpn6 | 5
-2.15 | active | Ptpn6 | 6
-0.532 | inactive | Nfkb2 | 1
-0.855 | inactive | Nfkb2 | 2
-1.41 | inactive | Nfkb2 | 3
0.525 | inactive | Nfkb2 | 4
1.29 | inactive | Nfkb2 | 5
-1.37 | inactive | Nfkb2 | 6
